No constants are given. Whether binding was seen depends on the method and setting. In cells and extracts the contact can be indirect. Some binding calls cover weakened binding; strength is not graded here. Sequences can lack the tags named with a protein.
Molecular target: MPP-processed product of the MTP-CoxIV::Twin Strep::AnfK fusion polypeptide (SN195; encoded by SL34, SL37 and SL43) (Azotobacter vinelandii) (UniProt P16267)
Experiment: Strep-tactin XT pull-down of TwinStrep::AnfK from SL37-infiltrated leaves, anaerobic; anti-HA Western blot of the eluate

Protein sequences, listed by entry. Tags and fused reporters are not part of them. Lines headed by an entry give the natural chain unless they say otherwise; changes in a name come on top.
UniProt P16267: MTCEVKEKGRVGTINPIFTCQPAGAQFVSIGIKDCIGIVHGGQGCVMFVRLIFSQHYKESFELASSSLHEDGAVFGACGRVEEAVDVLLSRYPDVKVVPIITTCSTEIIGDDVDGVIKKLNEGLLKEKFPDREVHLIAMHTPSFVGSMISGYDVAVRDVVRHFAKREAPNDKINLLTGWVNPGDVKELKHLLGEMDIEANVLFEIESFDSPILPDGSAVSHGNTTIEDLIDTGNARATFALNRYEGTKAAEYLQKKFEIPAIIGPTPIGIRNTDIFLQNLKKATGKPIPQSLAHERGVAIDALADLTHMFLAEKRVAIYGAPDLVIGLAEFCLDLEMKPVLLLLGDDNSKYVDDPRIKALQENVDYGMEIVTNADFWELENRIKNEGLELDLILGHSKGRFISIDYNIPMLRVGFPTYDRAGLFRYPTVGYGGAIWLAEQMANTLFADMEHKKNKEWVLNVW

B1: MTP-FAγ51::AnfD::HA fusion polypeptide (SN81; encoded by SL37), unprocessed form (enzyme)
chain: MMAMAVFRREGRRLLPSIAARPIAAIRSPLSSDQEEGLLGVRSISTQVVRNRGGMPHHEFECSKVIPERKKHAVIKGKGETLADALPQGYLNTIPGSISERGCAYCGAKHVIGTPMKDVIHISHGPVGCTYDTWQTKRYISDNDNFQLKYTYATDVKEKHIVFGAEKLLKQNIIEAFKAFPQIKRMTIYQTCATALIGDDINAIAEEVMEEMPEVDIFVCNSPGFAGPSQSGGHHKINIAWINQKVGTVEPEITGDHVINYVGEYNIQGDQEVMVDYFKRMGIQVLSTFTGNGSYDGLRAMHRAHLNVLECARSAEYICNELRVRYGIPRLDIDGFGFKPLADSLRKIGMFFGIEDRAKAIIDEEVARWKPELDWYKERLMGKKVCLWPGGSKLWHWAHVIEEEMGLKVVSVYTKFGHQGDMEKGIARCGEGTLAIDDPNELEGLEALEMLKPDIILTGKRPGEVAKKVRVPYLNAHAYHNGPYKGFEGWVRFARDIYNAIYSPIHQLSGIDITKDNAPEWGNGFRTRQMLSDGNLSDAVRNSETLRQYTGGYDSVSKLREREYPAFERKVGGGYPYDVPDYA
binding: binds
